# Data from doi:10.1101/2024.05.16.594269.
# Chains of the proteins cited; added tags and fusions are not shown.
# UniProt Q96A61: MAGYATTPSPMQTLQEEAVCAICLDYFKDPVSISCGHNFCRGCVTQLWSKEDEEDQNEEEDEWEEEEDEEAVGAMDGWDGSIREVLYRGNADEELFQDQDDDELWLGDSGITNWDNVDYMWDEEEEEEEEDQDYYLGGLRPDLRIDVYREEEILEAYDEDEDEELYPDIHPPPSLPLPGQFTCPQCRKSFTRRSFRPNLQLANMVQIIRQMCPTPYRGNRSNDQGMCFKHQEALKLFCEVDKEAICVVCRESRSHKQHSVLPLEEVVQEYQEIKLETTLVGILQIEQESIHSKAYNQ
# UniProt Q7Z6Z7: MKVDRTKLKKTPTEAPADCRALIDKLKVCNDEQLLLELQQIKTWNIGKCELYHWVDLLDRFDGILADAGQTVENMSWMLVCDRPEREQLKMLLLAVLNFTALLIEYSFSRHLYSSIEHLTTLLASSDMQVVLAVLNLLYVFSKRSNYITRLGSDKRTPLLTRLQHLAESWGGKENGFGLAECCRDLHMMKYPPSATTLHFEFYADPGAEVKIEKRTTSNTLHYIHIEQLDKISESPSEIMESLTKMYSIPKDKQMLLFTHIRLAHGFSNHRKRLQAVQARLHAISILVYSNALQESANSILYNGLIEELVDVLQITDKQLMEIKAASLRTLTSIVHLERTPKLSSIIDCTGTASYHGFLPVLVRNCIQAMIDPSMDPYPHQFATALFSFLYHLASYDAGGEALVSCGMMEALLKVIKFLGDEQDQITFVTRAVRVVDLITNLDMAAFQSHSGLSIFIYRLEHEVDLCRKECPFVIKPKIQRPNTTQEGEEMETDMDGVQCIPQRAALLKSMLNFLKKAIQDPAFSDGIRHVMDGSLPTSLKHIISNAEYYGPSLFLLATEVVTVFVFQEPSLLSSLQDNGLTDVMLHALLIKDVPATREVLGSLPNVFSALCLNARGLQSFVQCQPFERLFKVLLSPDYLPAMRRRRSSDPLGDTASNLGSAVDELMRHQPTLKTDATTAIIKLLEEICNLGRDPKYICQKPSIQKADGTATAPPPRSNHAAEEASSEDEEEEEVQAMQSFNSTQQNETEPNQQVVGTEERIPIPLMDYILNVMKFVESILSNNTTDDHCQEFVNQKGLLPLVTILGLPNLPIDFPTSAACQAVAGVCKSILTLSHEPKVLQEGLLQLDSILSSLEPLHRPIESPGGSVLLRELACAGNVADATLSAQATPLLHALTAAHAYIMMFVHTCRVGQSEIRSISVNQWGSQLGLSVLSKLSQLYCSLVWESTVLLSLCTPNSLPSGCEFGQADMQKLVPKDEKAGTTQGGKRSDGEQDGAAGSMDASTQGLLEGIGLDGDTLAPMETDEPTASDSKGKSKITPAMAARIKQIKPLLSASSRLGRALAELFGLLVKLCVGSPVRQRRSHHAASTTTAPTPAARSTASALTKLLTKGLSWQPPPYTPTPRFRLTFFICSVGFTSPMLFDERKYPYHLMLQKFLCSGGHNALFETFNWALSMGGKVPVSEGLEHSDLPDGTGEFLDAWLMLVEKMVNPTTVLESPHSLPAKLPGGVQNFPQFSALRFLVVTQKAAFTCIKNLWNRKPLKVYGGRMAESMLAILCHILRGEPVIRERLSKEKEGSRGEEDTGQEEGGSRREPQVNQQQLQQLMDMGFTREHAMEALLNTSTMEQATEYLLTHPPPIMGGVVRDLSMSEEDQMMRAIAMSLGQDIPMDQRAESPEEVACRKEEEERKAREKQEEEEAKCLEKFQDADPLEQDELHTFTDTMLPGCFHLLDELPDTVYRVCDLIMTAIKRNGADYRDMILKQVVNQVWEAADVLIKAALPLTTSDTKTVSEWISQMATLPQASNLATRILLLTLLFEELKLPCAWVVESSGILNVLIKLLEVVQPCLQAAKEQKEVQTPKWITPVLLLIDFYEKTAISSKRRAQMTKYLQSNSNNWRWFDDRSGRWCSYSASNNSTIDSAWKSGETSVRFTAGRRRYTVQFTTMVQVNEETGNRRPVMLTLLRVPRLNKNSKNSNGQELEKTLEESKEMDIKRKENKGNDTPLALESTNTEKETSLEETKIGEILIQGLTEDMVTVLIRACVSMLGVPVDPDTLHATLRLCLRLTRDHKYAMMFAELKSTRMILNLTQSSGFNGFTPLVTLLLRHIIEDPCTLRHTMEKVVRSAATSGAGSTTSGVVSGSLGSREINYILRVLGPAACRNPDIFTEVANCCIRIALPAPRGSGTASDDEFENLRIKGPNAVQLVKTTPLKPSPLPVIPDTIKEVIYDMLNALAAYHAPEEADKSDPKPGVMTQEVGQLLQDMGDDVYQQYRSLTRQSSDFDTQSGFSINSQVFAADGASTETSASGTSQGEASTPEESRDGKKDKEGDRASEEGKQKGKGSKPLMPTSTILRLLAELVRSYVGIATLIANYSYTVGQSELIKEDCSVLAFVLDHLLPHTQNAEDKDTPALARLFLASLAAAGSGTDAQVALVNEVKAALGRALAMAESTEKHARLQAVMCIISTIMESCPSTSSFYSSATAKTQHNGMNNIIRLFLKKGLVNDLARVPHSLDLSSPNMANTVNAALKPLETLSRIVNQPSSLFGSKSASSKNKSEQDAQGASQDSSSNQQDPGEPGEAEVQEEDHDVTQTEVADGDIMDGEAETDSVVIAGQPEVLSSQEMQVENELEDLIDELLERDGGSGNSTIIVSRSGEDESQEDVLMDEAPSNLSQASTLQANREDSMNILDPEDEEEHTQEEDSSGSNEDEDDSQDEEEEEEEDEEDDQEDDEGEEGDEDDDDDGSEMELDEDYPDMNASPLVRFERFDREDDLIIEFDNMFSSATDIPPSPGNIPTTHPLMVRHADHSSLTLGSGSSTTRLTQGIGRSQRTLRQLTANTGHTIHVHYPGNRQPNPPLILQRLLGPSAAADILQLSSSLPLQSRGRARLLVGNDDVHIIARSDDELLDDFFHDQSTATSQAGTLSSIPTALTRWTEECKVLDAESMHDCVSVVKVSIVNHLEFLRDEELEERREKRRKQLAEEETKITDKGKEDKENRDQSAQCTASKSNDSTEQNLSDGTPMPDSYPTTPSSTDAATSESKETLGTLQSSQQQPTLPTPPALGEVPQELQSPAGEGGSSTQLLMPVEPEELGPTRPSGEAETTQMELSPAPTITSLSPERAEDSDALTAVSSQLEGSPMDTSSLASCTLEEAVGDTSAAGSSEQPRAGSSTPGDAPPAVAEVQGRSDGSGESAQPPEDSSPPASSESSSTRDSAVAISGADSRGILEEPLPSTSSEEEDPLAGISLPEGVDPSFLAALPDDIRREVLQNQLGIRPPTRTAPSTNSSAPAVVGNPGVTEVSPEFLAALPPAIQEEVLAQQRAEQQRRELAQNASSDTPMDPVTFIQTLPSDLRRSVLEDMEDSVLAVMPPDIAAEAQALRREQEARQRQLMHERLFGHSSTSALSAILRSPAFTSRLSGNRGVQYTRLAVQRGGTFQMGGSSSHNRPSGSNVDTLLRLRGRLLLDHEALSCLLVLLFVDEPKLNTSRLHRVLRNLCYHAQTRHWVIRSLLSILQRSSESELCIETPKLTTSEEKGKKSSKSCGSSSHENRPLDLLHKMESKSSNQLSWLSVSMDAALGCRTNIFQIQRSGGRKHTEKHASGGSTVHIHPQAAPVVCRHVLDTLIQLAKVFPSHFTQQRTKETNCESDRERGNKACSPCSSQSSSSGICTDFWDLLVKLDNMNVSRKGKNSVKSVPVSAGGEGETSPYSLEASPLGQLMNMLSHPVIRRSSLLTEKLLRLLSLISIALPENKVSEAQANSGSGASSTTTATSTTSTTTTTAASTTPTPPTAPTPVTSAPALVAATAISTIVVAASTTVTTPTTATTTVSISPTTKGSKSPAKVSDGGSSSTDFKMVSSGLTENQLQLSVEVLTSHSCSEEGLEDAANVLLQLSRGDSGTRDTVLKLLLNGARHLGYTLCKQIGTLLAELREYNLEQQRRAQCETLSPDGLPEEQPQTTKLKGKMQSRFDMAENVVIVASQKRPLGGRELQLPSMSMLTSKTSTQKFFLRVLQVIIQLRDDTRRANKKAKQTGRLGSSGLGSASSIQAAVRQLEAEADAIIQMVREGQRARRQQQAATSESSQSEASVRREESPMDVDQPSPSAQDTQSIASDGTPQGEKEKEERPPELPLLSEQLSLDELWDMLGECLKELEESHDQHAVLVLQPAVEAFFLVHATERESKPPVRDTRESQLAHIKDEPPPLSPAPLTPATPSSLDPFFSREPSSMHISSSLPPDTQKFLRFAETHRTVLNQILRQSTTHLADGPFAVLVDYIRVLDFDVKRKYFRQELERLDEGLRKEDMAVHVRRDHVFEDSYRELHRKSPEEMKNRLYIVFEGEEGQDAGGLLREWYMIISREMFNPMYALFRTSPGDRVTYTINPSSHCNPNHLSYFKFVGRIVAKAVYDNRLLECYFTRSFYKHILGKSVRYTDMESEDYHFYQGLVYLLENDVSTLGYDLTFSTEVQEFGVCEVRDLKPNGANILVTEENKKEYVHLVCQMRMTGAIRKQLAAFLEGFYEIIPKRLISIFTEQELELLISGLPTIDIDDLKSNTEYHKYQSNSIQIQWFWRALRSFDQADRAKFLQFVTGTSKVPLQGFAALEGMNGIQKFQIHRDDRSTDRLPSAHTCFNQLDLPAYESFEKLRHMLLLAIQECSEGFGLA
# No constants are given. Whether binding was seen depends on the method and setting. For part of these data: Binding seen in cells or lysates may run through a third protein. Some results given as binding are weak or reduced against the parent protein; the word gives no strength.
# Tests used:
# [1] = target: 3xHA-tagged TRIM52 (full-length, WT) (human) (UniProt Q96A61); experiment: co-IP
# [2] = target: TwinStrep-tagged EGFP-TRIM52 (WT) (human) (UniProt Q96A61); experiment: co-IP
Substance,binding [1],binding [2]
BIRC6 (endogenous) (from UniProt Q9NR09 1-4857) (enzyme),binds,
HUWE1 (endogenous) (from UniProt Q7Z6Z7 1-4374) (enzyme),binds,
purified human HUWE1 (recombinant) (from UniProt Q7Z6Z7 1-4374) (enzyme),,binds
